Data reported in patent US20100183617A1.
No constants are given. Whether binding was seen depends on the method and setting. Some results given as binding are weak or reduced against the parent protein; the word gives no strength. Where a sequence is shown, tags or fusion partners need not be part of it.

What was measured:
[1] = molecular target: N-terminal SAS1R protein (121 residues) fused to the GAL4 DNA-binding domain (pGBKT7), yeast two-hybrid (mouse); assay: yeast two-hybrid, high stringency plate
[2] = molecular target: full-length mouse SAS1R (414 residues, without signal sequence) fused to the GAL4 DNA-binding domain (pGBKT7), yeast two-hybrid (mouse); assay: yeast two-hybrid, high stringency plate
[3] = molecular target: C-terminal 210 residue SAS1R protein fused to the GAL4 DNA-binding domain (pGBKT7), yeast two-hybrid (mouse); assay: yeast two-hybrid, high stringency plate
[4] = molecular target: N-terminal SAS1R protein (121 residues) fused to the GAL4 DNA-binding domain (pGBKT7), yeast two-hybrid (mouse); assay: yeast two-hybrid, high stringency plates
[5] = molecular target: full-length mouse SAS1R (414 residues, without signal sequence) fused to the GAL4 DNA-binding domain (pGBKT7), yeast two-hybrid (mouse); assay: yeast two-hybrid, high stringency plates
[6] = molecular target: C-terminal 210 residue SAS1R protein fused to the GAL4 DNA-binding domain (pGBKT7), yeast two-hybrid (mouse); assay: yeast two-hybrid, high stringency plates
[7] = molecular target: N-terminal SAS1R protein (121 residues) fused to the GAL4 DNA-binding domain (pGBKT7), yeast two-hybrid (mouse); assay: yeast two-hybrid
[8] = molecular target: C-terminal 210 residue SAS1R protein fused to the GAL4 DNA-binding domain (pGBKT7), yeast two-hybrid (mouse); assay: yeast two-hybrid
[9] = molecular target: N-terminal SAS1R protein (121 residues) fused to the GAL4 DNA-binding domain (pGBKT7), yeast two-hybrid (mouse); assay: yeast two-hybrid, plates examined after three days
[10] = molecular target: C-terminal 210 residue SAS1R protein fused to the GAL4 DNA-binding domain (pGBKT7), yeast two-hybrid (mouse); assay: yeast two-hybrid, plates examined after three days
[11] = molecular target: T1, purified recombinant mouse egg-specific TolA protein (MET), His-tagged fusion expressed in E. coli (mouse) (UniProt Q9CWU5); assay: far-western: 7 µg recombinant MET blotted, overlaid with recombinant SLLP1 2 µg/ml
T1 sequence: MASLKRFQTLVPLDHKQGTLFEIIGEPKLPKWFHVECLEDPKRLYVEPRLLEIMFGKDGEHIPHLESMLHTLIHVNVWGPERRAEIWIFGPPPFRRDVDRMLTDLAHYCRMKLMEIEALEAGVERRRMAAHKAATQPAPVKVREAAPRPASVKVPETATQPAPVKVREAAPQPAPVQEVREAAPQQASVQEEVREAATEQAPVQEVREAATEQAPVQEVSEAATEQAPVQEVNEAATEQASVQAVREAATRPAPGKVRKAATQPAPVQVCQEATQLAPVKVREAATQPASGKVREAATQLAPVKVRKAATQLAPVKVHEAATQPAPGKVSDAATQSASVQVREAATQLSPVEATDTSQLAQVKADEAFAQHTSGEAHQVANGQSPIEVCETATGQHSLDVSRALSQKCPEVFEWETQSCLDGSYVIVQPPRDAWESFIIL

Measured: binding

B1: mature mSLLP1 protein (C-terminal 128 residues) fused to the GAL4 activation domain (pGADT7), yeast two-hybrid (protein, not shown: large carriers)
chain: KVFSRCELAKEMHDFGLDGYRGYNLADWVCLAYYTSGFNTNAVDHEADGSTNNGIFQISSRRWCRTLASNGPNLCRIYCTDLLNNDLKDSIVCAMKIVQEPLGLGYWEAWRHHCQGRDLSDWVDGCDF
binds: [1] | [2] | [3] | [4] | [5] | [6] | [7] | [8] | [9] | [10]

B2: purified soluble recombinant mouse SLLP1 (mature form, residues 94-221), His-tagged, expressed in E. coli (ligand, not shown: small tags and cut ends)
chain: KVFSRCELAKEMHDFGLDGYRGYNLADWVCLAYYTSGFNTNAVDHEADGSTNNGIFQISSRRWCRTLASNGPNLCRIYCTDLLNNDLKDSIVCAMKIVQEPLGLGYWEAWRHHCQGRDLSDWVDGCDF
binds: [11]
